The source of these data is PubChem BioAssay AID2685 (National Center for Advancing Translational Sciences (NCATS), 2010).

This experiment is described as follows: qHTS Assay for Lipid Storage Modulators in Drosophila S3 Cells.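 As to cell number change: cells counted by Cell Tracker Red CMTPX staining in the red channel.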 To be noted: BODIPY lipid droplet fluorescence, 18-24 h; for cell number change: measured here: cell count max response, cells fed with added oleic acid. A digest of the protocol:
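Laser-scanning cytometry quantifies lipid droplet accumulation (500–530 nm total intensity; droplet/cell object ratio) in oleic acid-fed (400 uM added) Drosophila S3 cells treated with a concentration series. 20 uM Triacsin C defined 100% inhibition.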

Setting [1] is: measured here: lipid fluorescence (Fed channel) AC50, cells fed with added oleic acid.
Setting [2] is: measured here: cell number channel AC50, cells fed with added oleic acid.

SMILES strings stand for the structures. The list shows a part of the results. These are further read-outs of the screen, such as a control signal, another cell line or another target. No call is given for them. The list favours compounds with an active or inconclusive main result. Words in brackets tell the shape of the fitted curve; partial curves, single points and poor fits give uncertain potencies.

Turning to `Cc1onc(-c2ccccc2Cl)c1C(=O)N1CCOC12CCCCC2`, the cell number change is -6.15%.
A word on the AC50: it is the concentration at which the activity in the assay is half-maximal. In the case of `CCOc1cc(C=O)ccc1OCCCN1C(=O)NC(C)(C)C1=O`, the cell number change was 18.1%. Also, under setting [1], the AC50 is 3.66 µM [falling, full curve].
With `O=[N+]([O-])c1ccc(N/N=C/c2cn(Cc3ccc(F)cc3)c3ccccc23)nc1`, the cell number change came out at 14%.
On to `Cc1noc(C)c1C(=O)OCC(=O)NCCc1ccc(Cl)cc1`, for which the cell number change stood at 2.17%. The concentration at half-maximal activity (AC50) under setting [1] was 29.1 µM [rising, single point].
Take `CN1CCN(c2ccc(S(=O)(=O)N3CCCCC3)cn2)CC1`: the cell number change is 24.1%.
For `COc1ccc(NC(=O)CN2C(=O)/C(=C3\SC(=S)N(C4CCS(=O)(=O)C4)C3=O)c3ccccc32)cc1` (configuration not stated), the cell number change came out at 26.2%. Under setting [1], the AC50 is 3.66 µM [rising, full curve].
As for `CCN(Cc1ccccc1)C(=O)c1cc2cc(OC)c(OC)cc2[nH]1`, the cell number change amounted to 18.3%. Also, under setting [1], the AC50 was 0.517 µM [rising, full curve, poor fit].
`CCOC(=O)N1CCN(C(=O)Cn2ncc3c2-c2ccccc2OC3)CC1`: the cell number change came to 61.8%. For the same compound, the concentration at half-maximal activity (AC50) under setting [2] is 6.51 µM [rising, single point]. Under setting [1], the AC50 was 6.51 µM [rising, single point].
Regarding `CCn1c(CNC(=O)c2ccco2)nnc1SCCOc1ccccc1`, the cell number change stood at 7.69%.
Take `CCOC(=O)Cc1csc(N/N=C\c2ccccc2OC)n1`: the cell number change is -16.8%. Also, the AC50 under setting [1] is 29.1 µM [rising, single point].
For `Cc1c(Br)c(C(F)(F)F)nn1CC(=O)NCC1CCCO1` (configuration not stated), the cell number change is 3.25%. For the same compound, the AC50 under setting [1] is 0.116 µM [falling, full curve, poor fit].
Take `COc1ccc(NC(=S)N2CCC(Cc3ccccc3)CC2)cc1`: the cell number change stood at 8.67%.
Regarding `CCn1c(SCC(N)=O)nc2sc3c(c2c1=O)CCCC3`, the cell number change was found to be 16.4%.
Take `O=C(Nc1cccc(C(=O)NC2CCCCC2)c1)c1ccccc1`: the cell number change is -1.74%. Moreover, the AC50 under setting [1] is 0.58 µM [falling, single point].
In the case of `CCOC(=O)c1c(C)nc2ccc(C)cn12`, the cell number change was 68.1%. For the same compound, the half-maximal activity concentration (AC50) under setting [2] was 29.1 µM [rising, single point].
Consider `Cc1ccc(Cn2nc(C)c(C(=O)NCC(c3ccc(F)cc3)N3CCOCC3)c2Cl)cc1` (configuration not stated), for which the cell number change was 6.65%. Also, the AC50 under setting [2] is 4.61 µM [rising, single point].
As to `O=C(NC(CO)C(=O)OCc1ccccc1)OCc1ccccc1` (configuration not stated), the cell number change is -21.2%. For the same compound, under setting [2], the concentration at half-maximal activity (AC50) is 0.092 µM [falling, full curve, poor fit]. Besides, under setting [1], the AC50 was 0.146 µM [falling, full curve, poor fit].
For the compound `CCOc1ccc(C(=O)NCC(=O)OCCCOC(=O)CNC(=O)c2ccc(OCC)cc2)cc1`, the cell number change was 9.38%. Also, the half-maximal activity concentration (AC50) under setting [1] was 16.4 µM [rising, partial curve].
On to `N#C/C(=C/c1ccc(C(=O)O)cc1)C(=O)NCc1ccccc1`, for which the cell number change is -99.4%. Further, the concentration at half-maximal activity (AC50) under setting [2] was 5.17 µM [falling, full curve]. Moreover, the AC50 under setting [1] was 29.1 µM [falling, single point].
As to `O=C(CC1NC(=S)NC1=O)c1ccc(Cl)cc1` (configuration not stated), the cell number change stood at 23.5%. For the same compound, the concentration at half-maximal activity (AC50) under setting [1] was 11.6 µM [falling, partial curve, poor fit].
Regarding `CCc1nc2ccc(C(=O)N3CCN(c4cccc(Cl)c4)CC3)cc2nc1CC`, the cell number change was 33.6%. Also, the AC50 under setting [2] is 0.231 µM [rising, full curve, poor fit]. Under setting [1], the AC50 is 1.64 µM [rising, partial curve].
Regarding `CC(C)CC(=O)Nc1nnc(S(=O)(=O)N2c3ccccc3CC2C)s1` (configuration not stated), the cell number change was 24.9%. The half-maximal activity concentration (AC50) under setting [1] was 29.1 µM [rising, single point].
As for `O=C(CCC(=O)N1CCOc2ccc(Cl)cc21)NCCCN1CCN(Cc2ccccc2)CC1`, the cell number change turned out to be 14.4%. Under setting [1], the half-maximal activity concentration (AC50) is 14.6 µM [falling, single point].
Take `COC(=O)c1cc2c(-c3ccccc3)c(C)c3ccccn3c-2c1C(=O)OC`: the cell number change was -13.4%. Moreover, the concentration at half-maximal activity (AC50) under setting [2] was 6.51 µM [rising, partial curve, poor fit].
In the case of `OCCC1CN(CCCc2ccccc2)CCN1CCc1ccccc1` (configuration not stated), the cell number change amounted to 12.4%. Further, the concentration at half-maximal activity (AC50) under setting [1] is 29.1 µM [rising, single point].
Regarding `CCOC(=O)c1ccc(NS(=O)(=O)c2cc3c(cc2C)NC(=O)CO3)cc1`, the cell number change was -31%. Besides, the AC50 under setting [2] is 29.1 µM [falling, single point].
For the compound `CCOC(=O)c1cccc(NC(=O)CN(C)S(=O)(=O)c2cnc[nH]2)c1`, the cell number change came to 5.66%. Also, the AC50 under setting [1] is 29.1 µM [rising, single point].
Take `O=C(c1cc(Cl)ccc1Cl)N1CCc2ccccc21`: the cell number change was 15.1%. The AC50 under setting [1] is 29.1 µM [rising, single point].
As for `Cc1ccc(/C=N/N2CCN(c3ccncc3S(=O)(=O)N3CCCCC3)CC2)cc1`, the cell number change was 14.9%. Besides, the AC50 under setting [1] is 0.58 µM [falling, partial curve, poor fit].
With `N#C/C(=C\c1ccc(F)cc1)c1nc(-c2ccco2)cs1`, the cell number change is -47.9%. The concentration at half-maximal activity (AC50) under setting [2] was 3.66 µM [falling, full curve]. The AC50 under setting [1] was 2.31 µM [falling, partial curve].
Take `O=C(O)C(Cc1c[nH]c2ccccc12)NS(=O)(=O)c1ccc(Cl)c(C(F)(F)F)c1` (configuration not stated): the cell number change was -5.56%.
In the case of `C/C(=N\NC(=O)Cc1cccc2ccccc12)c1ccncc1`, the cell number change is 3.7%. Under setting [1], the concentration at half-maximal activity (AC50) is 2.59 µM [rising, partial curve].
Take `CC1=[N+](C)c2ccc3ccccc3c2C1(C)C`: the cell number change is -49%. Besides, under setting [2], the AC50 is 29.1 µM [falling, single point]. The half-maximal activity concentration (AC50) under setting [1] was 2.59 µM [falling, full curve].
In the case of `O=C(O)Cn1ncc2c1-c1ccoc1CC2`, the cell number change came out at 25.8%.
Take `Cc1cc(Cl)ccc1NC(=S)NCc1ccccc1`: the AC50 under setting [2] was 0.411 µM [rising, single point].
Consider `CCOC(=O)C1=C(C)NC(=O)NC1/C(C)=C/c1ccccc1` (configuration not stated), for which the cell number change was -6.72%. The half-maximal activity concentration (AC50) under setting [1] is 29.1 µM [rising, single point].
On to `Cn1c(SCc2nc3ccccc3[nH]2)nnc1-c1cccnc1`, for which the cell number change was -6.47%.
Take `N#C/C(=C/c1ccc(N2CCCCCC2)o1)c1ccc(Cl)cc1`: the cell number change was -56.7%. The AC50 under setting [2] was 18.4 µM [falling, single point]. For the same compound, the AC50 under setting [1] is 4.61 µM [falling, full curve, poor fit].
Turning to `O=C(NCCCc1ccccc1)c1ccc(F)cc1`, the cell number change is -0.794%. In addition, the AC50 under setting [1] was 3.66 µM [falling, single point].
Regarding `O=C(c1cccc(S(=O)(=O)N2CCN(c3ccccc3)CC2)c1)N1CCCC(C(F)(F)F)C1` (configuration not stated), the cell number change is -75%. Moreover, the half-maximal activity concentration (AC50) under setting [2] was 1.46 µM [rising, partial curve].
As for `S=C(NCCCN1CCOCC1)Nc1ccc(N2CCOCC2)cc1`, the cell number change was -55.5%. Moreover, the AC50 under setting [2] was 4.61 µM [falling, full curve, poor fit]. Besides, the AC50 under setting [1] was 4.11 µM [falling, full curve].
With `O=[N+]([O-])c1ccc(C=Nc2ccc(Cl)c([N+](=O)[O-])c2)s1`, the cell number change is -56.8%. The AC50 under setting [2] is 32.6 µM [falling, single point]. Under setting [1], the concentration at half-maximal activity (AC50) is 23.1 µM [falling, partial curve].
On to `COc1ccccc1NC(=O)Nc1ncccc1C`, for which the cell number change was -8.9%. Also, the concentration at half-maximal activity (AC50) under setting [1] was 25.9 µM [falling, single point].
For the compound `O=C(NCc1cccnc1)c1cc2nc(-c3cccs3)cc(C(F)(F)Cl)n2n1`, the cell number change amounted to 48.2%. For the same compound, the AC50 under setting [2] was 1.64 µM [rising, partial curve]. For the same compound, the AC50 under setting [1] was 0.82 µM [rising, full curve].
As to `C/C(=N\OCC(=O)OCC(=O)NCc1ccccc1)c1ccc2c(c1)OCO2`, the cell number change was -14.1%. In addition, under setting [2], the AC50 was 0.146 µM [falling, full curve, poor fit].
With `CCOC(=O)C1=C(C)Nc2ncnn2C1c1ccc2c(c1)OCO2` (configuration not stated), the cell number change was -7.66%. Moreover, under setting [1], the half-maximal activity concentration (AC50) is 29.1 µM [rising, single point].
As for `O=C(NC(=O)c1ccccc1F)Nc1nc(-c2cccs2)cc(C(F)(F)F)n1`, the concentration at half-maximal activity (AC50) reads like this: under setting [2], 0.366 µM [falling, full curve]; under setting [1], 0.0366 µM [falling, full curve].
`O=C(NC1=NCCS1)c1ccc2c(c1)C(=O)N(Cc1ccco1)C2=O`: the cell number change is -3.28%. The AC50 under setting [1] is 29.1 µM [rising, single point].
Take `O=C(NN=C1CCCCCC1)c1ccc(Br)o1`: the cell number change was -50.3%. In addition, the AC50 under setting [2] is 29.1 µM [falling, single point].
As to `COc1cc(/C=C/c2cc[n+](C)cc2)ccc1OCC(=O)Nc1ccc(Cl)c(Cl)c1`, the cell number change is 65.4%. Moreover, the half-maximal activity concentration (AC50) under setting [2] is 18.4 µM [rising, single point]. Further, the AC50 under setting [1] is 18.4 µM [falling, partial curve, poor fit].
`COc1ccccc1NC(=O)CN1CCN(CC(=O)Nc2ccc3c(c2)OCCO3)CC1`: the cell number change was determined as 20.1%. Besides, under setting [1], the AC50 is 13 µM [rising, partial curve].
With `CCCNc1c(NS(=O)(=O)c2ccc(C3CCCCC3)cc2)c(=O)oc2ccccc12`, the cell number change is -11.9%. The AC50 under setting [1] was 3.26 µM [falling, partial curve].
Consider `CC(c1ccccn1)N(C)C(=O)c1ccc2nc(Cc3cccc(Cl)c3)oc2c1` (configuration not stated), for which the cell number change is -26.1%.
Regarding `Cc1ccc(NC(=O)c2cccc(OC(F)F)c2)c(OC(F)F)c1`, the AC50 under setting [1] is 14.6 µM [rising, partial curve].
Take `CC1CC(C)(C)Nc2ccc(OC(=O)c3ccco3)cc21` (configuration not stated): the cell number change amounted to 2.43%. The AC50 under setting [1] was 25.9 µM [falling, single point].
With `CC1(c2ccc(Cl)cc2)NC(=O)N(CC(=O)NCc2ccc(F)cc2)C1=O` (configuration not stated), the cell number change was 13.7%.
For `CC1CCN(c2ccc3nnc(CCC(=O)NCc4ccco4)n3n2)CC1`, the cell number change is -15.3%. Further, the half-maximal activity concentration (AC50) under setting [1] is 18.4 µM [falling, single point].
As for `N#CCCn1ncn(-c2ccccc2)c1=S`, the cell number change was -11.5%. Under setting [1], the AC50 is 0.58 µM [falling, full curve, poor fit].
For the compound `Oc1cccc(C(O)CNCc2ccc(-c3ccccc3)cc2)c1` (configuration not stated), the cell number change was 1.24%.
For `O=C(NCc1ccco1)c1ccccc1NC(=O)C1CC(=O)N(c2ccc(Cl)cc2)C1` (configuration not stated), the cell number change worked out at 8.97%. Moreover, the AC50 under setting [1] is 2.06 µM [rising, single point].
Take `Cc1ccc(CNC(=O)CN(C)S(=O)(=O)c2cccs2)cc1`: the cell number change was -19%. In addition, the AC50 under setting [1] is 0.731 µM [falling, single point].
In the case of `O=C(O)c1ccc(OC(F)(F)C(F)C(F)(F)F)cc1` (configuration not stated), the cell number change was -40.2%. The AC50 under setting [2] was 2.06 µM [falling, full curve]. Besides, the AC50 under setting [1] was 18.4 µM [falling, partial curve].
